Here are results for ten molecules from the supplement of paper PMC8256030.

This is one part of the list. Single values are uncertain here, since repeats match poorly.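 HEK293T cells were given each compound shortly before transfection with a reporter in which red mCherry is followed by the SARS-CoV-2 frameshift element and then GFP in the −1 frame, so GFP appears only after frameshifting.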

This test concerns HEK293T. Nature of the test: percent viability (nuclei count) relative to control; higher = more viable cells. As to conditions: 10 µM; 24 h.
As to `CN1CCC[C@H]1c1cccnc1` [Nicotine], the percent viability is 43.3%.
Next, `CC1(C)O[C@@H]2C[C@H]3[C@@H]4CCC5=CC(=O)C=C[C@]5(C)[C@H]4[C@@H](O)C[C@]3(C)[C@]2(C(=O)CO)O1` [desonide]: 123%.
Next, `O=C(O)CN(CCN(CC(=O)O)CC(=O)O)CCN(CC(=O)O)CC(=O)O` [pentetic acid]: 122%; `Cn1c(=O)c2c(ncn2CCN2CCC(c3c[nH]c4ccccc34)CC2)n(C)c1=O` [tameridone]: 222%.
Next, `C[C@H]1O[C@@H](O[C@H]2CC[C@@]3(C)[C@H](CC[C@@H]4[C@@H]3C[C@@H](O)[C@]3(C)[C@@H](C5=CC(=O)OC5)CC[C@]43O)C2)C[C@H](O)[C@@H]1O[C@H]1C[C@H](O)[C@H](O[C@H]2C[C@H](O)[C@H](O[C@@H]3O[C@H](CO)[C@@H](O)[C@H](O)[C@H]3O)[C@@H](C)O2)[C@@H](C)O1` [deslanoside]: 5.41%; `CCCCCC(C)N` (stereo not given) [tuaminoheptane]: 182%.
In the case of `CC(=O)OCC(=O)[C@@]1(O)[C@@H](C)C[C@H]2[C@@H]3CCC4=CC(=O)C=C[C@]4(C)[C@@]3(F)[C@@H](O)C[C@@]21C`, the percent viability was found to be 298%.
To `C[C@]12CCC(=O)C=C1C=C[C@@H]1[C@@H]2CC[C@@]2(C)[C@H]1CC[C@@]21CCC(=O)O1` [canrenone] belongs 143%; to `Cc1c(C(=O)Nc2ccc(N3C[C@@H](C)O[C@@H](C)C3)nc2)cccc1-c1ccc(OC(F)(F)F)cc1` [Sonidegib], 66.6%; to `CC[N+](C)(CC)CCOC(=O)C(O)(c1ccccc1)C1CCCCC1` (stereo not given) [oxyphenonium bromide], 149%.
